Assay results: the supplement of paper PMC6078165

Tested on: BT20
Assay: relative JC-1 red fluorescence (viability) vs pre-drug, coculture with fibroblast (fraction); higher = more viable cancer cells
Conditions: 100 µM
Protocol: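 JC-1 labelled TNBC cells cocultured 1:1 (1,500 cells each) with CellTrace Violet stained primary or stromal fibroblasts in 384-well plates in FluoroBrite medium, treated with one of 42 anticancer drugs at 0.1, 1, 10 or 100 uM. JC-1 red fluorescence (mitochondrial integrity in cancer cells only) was read by plate reader every 8 h for 72 h. Values are normalised to each well's pre-drug value. The stock of one drug was tenfold lower, so its dose labels may be too high.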

O=C(O)CCCc1ccc(N(CCCl)CCCl)cc1 [Chlorambucil]
relative JC-1 red fluorescence
Conditions	8 h	16 h	24 h	32 h	40 h	48 h	56 h	64 h	72 h
coculture fibroblast: C12385	0.883	0.789	0.7062	0.643	0.582	0.544	0.506	0.475	0.444
coculture fibroblast: H6013	0.964	0.89	0.877	0.835	0.792	0.775	0.769	0.746	0.728
coculture fibroblast: H6019	0.879	0.808	0.75381	0.6837	0.6258	0.591	0.547	0.516	0.489
coculture fibroblast: H6076	0.886	0.883	0.772	0.734	0.69	0.66	0.642	0.633	0.61
coculture fibroblast: H6231	0.794	0.923	0.806	0.737	0.6737	0.609	0.565	0.532	0.497
coculture fibroblast: HADF	0.808	0.925	0.889	0.873	0.862	0.84	0.827	0.804	0.782
coculture fibroblast: HCFa	0.947	0.862	0.815	0.765	0.715	0.682	0.646	0.634	0.597
coculture fibroblast: HCPF	0.888	0.894	0.78	0.725	0.664	0.61	0.56	0.542	0.499
coculture fibroblast: HHSteC	0.925	0.826	0.802	0.723	0.657	0.621	0.584	0.563	0.529
coculture fibroblast: HMF	0.955	0.916	0.754	0.692	0.629	0.581	0.535	0.494	0.4501
coculture fibroblast: HPFa	0.854	0.917	0.919	0.836	0.812	0.762	0.743	0.717	0.675
coculture fibroblast: HUF	0.938	0.855	0.832	0.764	0.721	0.681	0.66	0.651	0.636
coculture fibroblast: Hs5	0.795	0.912	0.8169	0.76	0.719	0.68	0.647	0.622	0.606
coculture fibroblast: Hs27A	0.826	0.853	0.8865	0.894	0.865	0.858	0.851	0.821	0.79
coculture fibroblast: Hs343T	0.797	0.903	0.769	0.697	0.641	0.595	0.549	0.517	0.48
coculture fibroblast: WS1	0.889	0.825	0.756	0.691	0.625	0.597	0.561	0.532	0.511

The reference is the same well before dosing, and untreated signal decays as well.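 Labels refer to human fibroblasts, largely primary: uterine (C12385, HUF), lung (H6013), bone (Hs27A), adrenal (HADF), skin (WS1), plus mammary HMF and breast cancer-associated Hs343T. Cancer lines are basal-like or mesenchymal-like triple-negative breast cancer. The paper counts as hits responses shifting over 3x the replicate standard deviation. The tissue of the other fibroblasts is not given here.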
